We go through 5 sequences from article PMC11347137.

The comparison behind a weaker result is the experiment's own reference, which may not be listed here. Construct, isoform or probe ends are uncertain for at least one entry. At least one verdict was read from the data and is not stated in words by the source.

The data set addresses M.MpeI (called wild type) Q68R,K71R,S295P (UniProt Q8EVR5). The experiment in a line: SDS-PAGE covalent complex. Conditions: 160 uM SAM, 160 uM SAM or sinefungin, 37 C, recombinant protein.

Regarding “CAGCATTATCACAGCGTTTACACAATAACC (double strand) [30-5FC / 30-5mC-down]”, the binding result runs as follows: (10 mM DTT, 5-fluorocytosine at position 15 of strand 1, 5mC at position 15 of strand 2, covalent SDS-PAGE: 10 mM Tris-HCl pH 7.9, 50 mM NaCl, residues 1-395, protein details: C-terminal LEHHHHHH, label: 5' Cy3 or 5' 32P on strand 2, letters put together from the description) “binds”; (no DTT, 5-fluorocytosine at position 15 of strand 1, 5mC at position 15 of strand 2, covalent SDS-PAGE: 10 mM Tris-HCl pH 7.9, 50 mM NaCl, +/-10 mM DTT, residues 1-395, protein details: C-terminal LEHHHHHH, label: 5' Cy3 or 5' 32P on strand 2, letters put together from the description) “binds”.

On to “CAGCATTATCACAGCGTTTACACAATAACC (double strand) [30-5OHC / 30-5mC-down]”, for which the binding result reads like this: (10 mM DTT, less DTT-sensitive than 5BrC/5IC, 5-hydroxycytosine at position 15 of strand 1, 5mC at position 15 of strand 2, covalent SDS-PAGE: 10 mM Tris-HCl pH 7.9, 50 mM NaCl, residues 1-395, protein details: C-terminal LEHHHHHH, label: 5' Cy3 or 5' 32P on strand 2, letters put together from the description) “binds more weakly”; (no DTT, 5-hydroxycytosine at position 15 of strand 1, 5mC at position 15 of strand 2, covalent SDS-PAGE: 10 mM Tris-HCl pH 7.9, 50 mM NaCl, +/-10 mM DTT, residues 1-395, protein details: C-terminal LEHHHHHH, label: 5' Cy3 or 5' 32P on strand 2, letters put together from the description) “binds more weakly”.

With “CAGCATTATCACAGCGTTTACACAATAACC (double strand) [30-5IC / 30-5mC-down]”, the binding result reads like this: (10 mM DTT, signal largely lost, 5-iodocytosine at position 15 of strand 1, 5mC at position 15 of strand 2, covalent SDS-PAGE: 10 mM Tris-HCl pH 7.9, 50 mM NaCl, residues 1-395, protein details: C-terminal LEHHHHHH, label: 5' Cy3 or 5' 32P on strand 2, letters put together from the description) “binds more weakly”; (no DTT, 5-iodocytosine at position 15 of strand 1, 5mC at position 15 of strand 2, covalent SDS-PAGE: 10 mM Tris-HCl pH 7.9, 50 mM NaCl, +/-10 mM DTT, residues 1-395, protein details: C-terminal LEHHHHHH, label: 5' Cy3 or 5' 32P on strand 2, letters put together from the description) “binds more weakly”.

Regarding “CAGCATTATCACAGCGTTTACACAATAACC (double strand) [30-5hmC / 30-5mC-down]”, the binding result (10 mM DTT, less DTT-sensitive than 5BrC/5IC, 5-hydroxymethylcytosine at position 15 of strand 1, 5mC at position 15 of strand 2, covalent SDS-PAGE: 10 mM Tris-HCl pH 7.9, 50 mM NaCl, residues 1-395, protein details: C-terminal LEHHHHHH, label: 5' Cy3 or 5' 32P on strand 2, letters put together from the description) was “binds more weakly” and the binding result (no DTT, 5-hydroxymethylcytosine at position 15 of strand 1, 5mC at position 15 of strand 2, covalent SDS-PAGE: 10 mM Tris-HCl pH 7.9, 50 mM NaCl, +/-10 mM DTT, residues 1-395, protein details: C-terminal LEHHHHHH, label: 5' Cy3 or 5' 32P on strand 2, letters put together from the description) is “binds more weakly”.

With “CAGCATTATCACAGCGTTTACACAATAACC (double strand) [30-5BrC / 30-5mC-down]”, the binding result (10 mM DTT, signal largely lost, 5-bromocytosine at position 15 of strand 1, 5mC at position 15 of strand 2, covalent SDS-PAGE: 10 mM Tris-HCl pH 7.9, 50 mM NaCl, residues 1-395, protein details: C-terminal LEHHHHHH, label: 5' Cy3 or 5' 32P on strand 2, letters put together from the description) was “binds more weakly” and the binding result (no DTT, 5-bromocytosine at position 15 of strand 1, 5mC at position 15 of strand 2, covalent SDS-PAGE: 10 mM Tris-HCl pH 7.9, 50 mM NaCl, +/-10 mM DTT, residues 1-395, protein details: C-terminal LEHHHHHH, label: 5' Cy3 or 5' 32P on strand 2, letters put together from the description) is recorded as “binds more weakly”.
